Reference: PubChem BioAssay AID248 (DTP/NCI, 2004)
The list is a part of this screen's results and no random one: it gathers some chemical classes. Not every dose and run of a compound is shown. T/C gives the treated animals as a percentage of the vehicle group. Where survival is the endpoint, this PubChem deposit counts one and a half times the control or more as active, and values a quarter to a half above the control carry no call in these data; other NCI protocols may use other cut-offs. Some entries show no survivor count and are marked so; the dose need not have been tolerated. Schedule codes are those of the source, read here as Q, the interval in days (D) or hours (H), X, the number of doses. Some entries were tested several times; the values are given in rising order. Some schedule codes hold Z or #, which are not explained here.

Tested on: L1210 leukemia ip in BDF1 mice, survival T/C
Assay: NCI In Vivo Anticancer Drug Screen. Data for tumor model L1210 Leukemia (intraperitoneal) in B6D2F1 (BDF1) mice
Settings: T/C endpoint: mean survival time, higher T/C = longer survival

CCCc1[nH]c(=S)[nH]c(=O)c1CN(CCCl)CCCl
T/C (dose: 3.1 mg/kg/injection, schedule: Q04DX002 (ip), vehicle: Klucel (hydroxypropylcellulose) (HPC)): 117 % of control [survivor count not shown] | T/C (dose: 6.25 mg/kg/injection, schedule: Q04DX002 (ip), vehicle: Klucel (hydroxypropylcellulose) (HPC)): 113 % of control [survivor count not shown] | T/C (dose: 12.5 mg/kg/injection, schedule: Q04DX002 (ip), vehicle: Klucel (hydroxypropylcellulose) (HPC)): 129 % of control [survivor count not shown] | T/C (dose: 25.0 mg/kg/injection, schedule: Q04DX002 (ip), vehicle: Klucel (hydroxypropylcellulose) (HPC)): 123 % of control [survivor count not shown]

CC(C)(C)C(=O)CBr
T/C (dose: 100.0 mg/kg/injection, schedule: Q04DX002 (ip), vehicle: Klucel (hydroxypropylcellulose) (HPC)): 100 % of control [survivor count not shown] | T/C (dose: 200.0 mg/kg/injection, schedule: Q04DX002 (ip), vehicle: Klucel (hydroxypropylcellulose) (HPC)): 88 % of control [survivor count not shown]

O=c1cnn(CN(CCCl)CCCl)c(=O)[nH]1
T/C (dose: 0.37 mg/kg/injection, schedule: Q04DX002 (ip), vehicle: saline): 152 % of control [survivor count not shown] | T/C (dose: 0.75 mg/kg/injection, schedule: Q04DX002 (ip), vehicle: saline): 134 % of control [survivor count not shown] | T/C (dose: 1.5 mg/kg/injection, schedule: Q04DX002 (ip), vehicle: saline): 160 % of control [survivor count not shown] | T/C (dose: 3.1 mg/kg/injection, schedule: Q04DX002 (ip), vehicle: saline): 100 % of control [survivor count not shown]

NC1CCCCC1.O=P(O)(NC1CCCCC1)N(CCCl)CCCl
T/C (dose: 5.0 mg/kg/injection, schedule: Q01DX Z (ip), vehicle: water): 102 % of control [survivor count not shown] | T/C (dose: 10.0 mg/kg/injection, schedule: Q01DX Z (ip), vehicle: water): 101 % of control [survivor count not shown] | T/C (dose: 20.0 mg/kg/injection, schedule: Q01DX Z (ip), vehicle: water): 101 % of control [survivor count not shown] | T/C (dose: 40.0 mg/kg/injection, schedule: Q01DX013 (ip), vehicle: water): 137 % of control [survivor count not shown] | T/C (dose: 80.0 mg/kg/injection, schedule: Q01DX013 (ip), vehicle: water): 135 % of control [survivor count not shown]

NP(=O)(OCc1ccccc1)N(CCCl)CCCl (stereo unspecified)
T/C (dose: 40.0 mg/kg/injection, schedule: Q01DX011 (ip), vehicle: water): 96 % of control [survivor count not shown] | T/C (dose: 80.0 mg/kg/injection, schedule: Q01DX011 (ip), vehicle: water): 105 % of control [survivor count not shown] | T/C (dose: 160.0 mg/kg/injection, schedule: Q01DX011 (ip), vehicle: water): 100 % of control [survivor count not shown] | T/C (dose: 250.0 mg/kg/injection, schedule: Q01DX Z (ip), vehicle: water): 116 % of control [survivor count not shown] | T/C (dose: 500.0 mg/kg/injection, schedule: Q01DX Z (ip), vehicle: saline): 109 % of control [survivor count not shown] | T/C (dose: 500.0 mg/kg/injection, schedule: Q01DX Z (ip), vehicle: water): 132 % of control [survivor count not shown] | T/C (dose: 750.0 mg/kg/injection, schedule: Q01DX Z (ip), vehicle: saline): 133 % of control [survivor count not shown]

OCC1OC(O)C(O)C(N(CCCl)CCCl)C1O (stereo unspecified)
T/C (dose: 0.07 mg/kg/injection, schedule: Q01DX Z (ip), vehicle: saline): 100 % of control [survivor count not shown] | T/C (dose: 0.11 mg/kg/injection, schedule: Q01DX Z (ip), vehicle: saline): 108 % of control [survivor count not shown] | T/C (dose: 0.17 mg/kg/injection, schedule: Q01DX Z (ip), vehicle: saline): 111 [survivor count not shown] and 129 % of control [survivor count not shown] | T/C (dose: 0.26 mg/kg/injection, schedule: Q01DX Z (ip), vehicle: saline): 114 [survivor count not shown] and 132 % of control [survivor count not shown] | T/C (dose: 0.4 mg/kg/injection, schedule: Q01DX Z (ip), vehicle: saline): 100 [survivor count not shown], 138 [survivor count not shown], 146 % of control [survivor count not shown] | T/C (dose: 0.6 mg/kg/injection, schedule: Q01DX Z (ip), vehicle: saline): 91 [survivor count not shown], 119 [survivor count not shown], 155 % of control [survivor count not shown] | T/C (dose: 0.9 mg/kg/injection, schedule: Q01DX Z (ip), vehicle: saline): 103 [survivor count not shown] and 131 % of control [survivor count not shown] | T/C (dose: 1.35 mg/kg/injection, schedule: Q01DX Z (ip), vehicle: saline): 104 [survivor count not shown] and 110 % of control [survivor count not shown] | T/C (dose: 1.5 mg/kg/injection, schedule: Q01DX Z (ip), vehicle: saline): 106 % of control [survivor count not shown]

O=[N+]([O-])c1ccc(O)c(CN(CCCl)CCCl)c1
T/C (dose: 12.5 mg/kg/injection, schedule: Q04DX003 (ip), vehicle: saline): 105 % of control [survivor count not shown] | T/C (dose: 25.0 mg/kg/injection, schedule: Q04DX003 (ip), vehicle: saline): 107 % of control [survivor count not shown] | T/C (dose: 50.0 mg/kg/injection, schedule: Q04DX003 (ip), vehicle: saline): 96 % of control [survivor count not shown] | T/C (dose: 100.0 mg/kg/injection, schedule: Q04DX003 (ip), vehicle: saline): 87 [survivor count not shown] and 107 % of control [survivor count not shown] | T/C (dose: 200.0 mg/kg/injection, schedule: Q04DX003 (ip), vehicle: saline): 97 % of control [survivor count not shown]

CCCCOc1ccccc1N(CCCl)CCCl
T/C (dose: 9.5 mg/kg/injection, schedule: Q01DX Z (ip), vehicle: methylcellulose (MC)): 99 % of control [survivor count not shown] | T/C (dose: 14.4 mg/kg/injection, schedule: Q01DX Z (ip), vehicle: methylcellulose (MC)): 97 % of control [survivor count not shown] | T/C (dose: 21.7 mg/kg/injection, schedule: Q01DX Z (ip), vehicle: methylcellulose (MC)): 95 % of control [survivor count not shown] | T/C (dose: 32.1 mg/kg/injection, schedule: Q01DX Z (ip), vehicle: methylcellulose (MC)): 102 % of control [survivor count not shown]

NC(Cc1ccc(O)c(N(CCCl)CCCl)c1)C(=O)O (stereo unspecified)
T/C (dose: 0.02 mg/kg/injection, schedule: Q01DX009 (ip), vehicle: saline): 125 % of control [survivor count not shown] | T/C (dose: 0.05 mg/kg/injection, schedule: Q01DX009 (ip), vehicle: saline): 144 % of control [survivor count not shown] | T/C (dose: 0.1 mg/kg/injection, schedule: Q01DX009 (ip), vehicle: saline): 150 % of control [survivor count not shown] | T/C (dose: 0.19 mg/kg/injection, schedule: Q01DX009 (ip), vehicle: saline): 110 % of control [survivor count not shown] | T/C (dose: 0.2 mg/kg/injection, schedule: Q01DX009 (ip), vehicle: saline): 157 % of control [survivor count not shown] | T/C (dose: 0.37 mg/kg/injection, schedule: Q01DX001 (ip), vehicle: saline): 101 [survivor count not shown] and 132 % of control [survivor count not shown] | T/C (dose: 0.37 mg/kg/injection, schedule: Q01DX009 (ip), vehicle: saline): 191 % of control [survivor count not shown] | T/C (dose: 0.75 mg/kg/injection, schedule: Q01DX001 (ip), vehicle: saline): 104 [survivor count not shown] and 134 % of control [survivor count not shown] | T/C (dose: 0.75 mg/kg/injection, schedule: Q01DX009 (ip), vehicle: saline): 176 [survivor count not shown] and 218 % of control [survivor count not shown] | T/C (dose: 1.5 mg/kg/injection, schedule: Q01DX001 (ip), vehicle: saline): 121 [survivor count not shown] and 134 % of control [survivor count not shown] | T/C (dose: 1.5 mg/kg/injection, schedule: Q01DX009 (ip), vehicle: saline): 105 [survivor count not shown] and 178 % of control [survivor count not shown] | T/C (dose: 3.0 mg/kg/injection, schedule: Q01DX001 (ip), vehicle: saline): 123 [survivor count not shown], 150 [survivor count not shown], 161 [survivor count not shown], 211 % of control [survivor count not shown] | T/C (dose: 3.0 mg/kg/injection, schedule: Q01DX009 (ip), vehicle: saline): 98 % of control [survivor count not shown] | T/C (dose: 6.0 mg/kg/injection, schedule: Q01DX001 (ip), vehicle: saline): 134 [survivor count not shown] and 135 % of control [survivor count not shown] | T/C (dose: 12.0 mg/kg/injection, schedule: Q01DX001 (ip), vehicle: saline): 140 % of control [survivor count not shown] | T/C (dose: 24.0 mg/kg/injection, schedule: Q01DX001 (ip), vehicle: saline): 251 % of control [survivor count not shown]
